{
  "source": "the supplement of paper PMC12889115",
  "tested_on": "Salmonella enterica serovar Typhimurium SL1344",
  "assay": "bacterial growth OD600 after 18 h with compound and polymyxin B; higher = more bacterial growth (less inhibition)",
  "details": "50 µM, Mueller-Hinton broth",
  "note": "Some of the results follow. These are raw signals, not scaled to a control.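 Primary screen: polymyxin B was added at a level permeabilizing Salmonella outer membranes while sparing inner membranes. DMSO wells, both with and without polymyxin B, established maximum growth. Plate-to-plate variation meant each plate was ranked on its own, and the lowest-OD600 compounds were selected as hits.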",
  "data": [
    {"compound": "CSCC(=O)N1CCC(C2CCN(c3ncccn3)CC2)C1", "note": "(centres undefined)", "values": [
      {"measurement": "bacterial growth OD600", "setting": "polymyxin B 1 µg/mL", "result": 1.04}
    ]},
    {"compound": "O=C1CCCN1CCC(=O)N1CCCC(CCc2cccc(F)c2)C1", "note": "(centres undefined)", "values": [
      {"measurement": "bacterial growth OD600", "setting": "polymyxin B 0.75 µg/mL", "result": 0.861}
    ]},
    {"compound": "CS(=O)(=O)N1CCC(Oc2ccc(C(=O)NCCN3CCCCC3)cc2Cl)CC1", "values": [
      {"measurement": "bacterial growth OD600", "setting": "polymyxin B 1 µg/mL", "result": 1.26}
    ]},
    {"compound": "Cc1cc(C(=O)N(C)C(Cc2ccccc2)C2CCN(C(=O)/C(F)=C/c3ccccc3)CC2)n(C)n1", "note": "(centres undefined)", "values": [
      {"measurement": "bacterial growth OD600", "setting": "polymyxin B 0.75 µg/mL", "result": 0.012}
    ]},
    {"compound": "COC(=O)c1ccccc1C(=O)N(C)CC1CCCN(CCc2ccc(F)cc2)C1", "note": "(centres undefined)", "values": [
      {"measurement": "bacterial growth OD600", "setting": "polymyxin B 1 µg/mL", "result": 0.829}
    ]},
    {"compound": "CCn1ccnc1CNC(=O)c1cc(COc2ccc(OC)c3ccccc23)on1", "values": [
      {"measurement": "bacterial growth OD600", "setting": "polymyxin B 0.75 µg/mL", "result": 0.4}
    ]},
    {"compound": "C=CCC(=O)N1CCc2c(sc(S(=O)(=O)NCc3ccc(Cl)cc3)c2C(=O)OC)C1", "values": [
      {"measurement": "bacterial growth OD600", "setting": "polymyxin B 0.75 µg/mL", "result": 0.98}
    ]},
    {"compound": "COc1ccccc1C1(CC(=O)N2CCCC(C(=O)CCc3ccccc3)C2)CC(=O)N(C)C1=O", "note": "(centres undefined)", "values": [
      {"measurement": "bacterial growth OD600", "setting": "polymyxin B 0.75 µg/mL", "result": 0.541}
    ]},
    {"compound": "COC(=O)c1ccc(CNCCC2CCC(=O)N2CCn2cncn2)cc1", "note": "(centres undefined)", "values": [
      {"measurement": "bacterial growth OD600", "setting": "polymyxin B 0.75 µg/mL", "result": 0.982}
    ]}
  ]
}
